Values from PubChem BioAssay AID1259424 (University of Nebraska Medical Center, 2018).

- Aim: 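Seek colon cancer survival genes behaving like KSR1, using a six-gene signature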 (primary screen)
- Cells: human HCT116 colon cancer cells
- Knock-down reagent: siRNA pool against human genes, 50 nM
- Measurement: 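Log2 levels of six mRNAs (branched-DNA multiplex), adjusted by two reference genes and the non-targeting median, then scored against the average KSR1 knockdown pattern as Pearson r and euclidean distance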
- Reading the numbers: mean correlation with KSR1 profile: higher = expression change more like KSR1 knockdown
Shown is a random part of about 14,000 deposited reagents. 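Higher correlation or smaller distance means closer resemblance to KSR1 loss; control wells, including KSR1 knockdowns, recur on many plates.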 Not all columns of the deposit are shown. Not given: the time to read-out.

{"Target gene": "EXT1 (GeneID 2131)", "mean correlation with KSR1 profile": -0.0555}
{"Target gene": "CENPT (GeneID 80152)", "mean correlation with KSR1 profile": 0.336}
{"Target gene": "ATP6V1A (GeneID 523)", "mean correlation with KSR1 profile": -0.0742}
{"Target gene": "ADGRG5 (GeneID 221188)", "mean correlation with KSR1 profile": 0.313}
{"Target gene": "DMRTB1 (GeneID 63948)", "mean correlation with KSR1 profile": -0.048}
{"Target gene": "CRACR2A (GeneID 84766)", "mean correlation with KSR1 profile": 0.045}

Taken from above.
Result for CENPT (GeneID 80152) in “mean correlation with KSR1 profile”: 0.336
Entry of EXT1 (GeneID 2131) under “mean correlation with KSR1 profile”: -0.0555

Next reagents:
{"Target gene": "KCND3 (GeneID 3752)", "mean correlation with KSR1 profile": -0.418}
{"Target gene": "KCNK12 (GeneID 56660)", "mean correlation with KSR1 profile": -0.741}
{"Target gene": "UBE2H (GeneID 7328)", "mean correlation with KSR1 profile": 0.0684}
{"Target gene": "PHAF1 (GeneID 80262)", "mean correlation with KSR1 profile": 0.0325}
{"Target gene": "IMMT (GeneID 10989)", "mean correlation with KSR1 profile": 0.197}
{"Target gene": "SNCAIP (GeneID 9627)", "mean correlation with KSR1 profile": 0.268}
